From doi:10.64898/2025.12.03.692074
No constants are given. Whether binding was seen depends on the method and setting. Binding seen in cells or lysates may run through a third protein. Here binding means that the protein was enriched with, or labelled near, the bait; the list need not be complete. Tags and fused reporters may be left off the sequences shown.

Target: T1, FLAG-miP-FERMT3 (human)
T1 sequence: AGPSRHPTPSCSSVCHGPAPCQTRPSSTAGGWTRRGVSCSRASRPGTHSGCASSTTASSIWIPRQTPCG
Assay: affinity purification with mass spectrometry

B1: TRIM8 (protein, UniProt Q9BZR9 1-551)
chain: MAENWKNCFEEELICPICLHVFVEPVQLPCKHNFCRGCIGEAWAKDSGLVRCPECNQAYNQKPGLEKNLKLTNIVEKFNALHVEKPPAALHCVFCRRGPPLPAQKVCLRCEAPCCQSHVQTHLQQPSTARGHLLVEADDVRAWSCPQHNAYRLYHCEAEQVAVCQYCCYYSGAHQGHSVCDVEIRRNEIRKMLMKQQDRLEEREQDIEDQLYKLESDKRLVEEKVNQLKEEVRLQYEKLHQLLDEDLRQTVEVLDKAQAKFCSENAAQALHLGERMQEAKKLLGSLQLLFDKTEDVSFMKNTKSVKILMDRTQTCTSSSLSPTKIGHLNSKLFLNEVAKKEKQLRKMLEGPFSTPVPFLQSVPLYPCGVSSSGAEKRKHSTAFPEASFLETSSGPVGGQYGAAGTASGEGQSGQPLGPCSSTQHLVALPGGAQPVHSSPVFPPSQYPNGSAAQQPMLPQYGGRKILVCSVDNCYCSSVANHGGHQPYPRSGHFPWTVPSQEYSHPLPPTPSVPQSLPSLAVRDWLDASQQPGHQDFYRVYGQPSTKHYVTS
binding: binds

B2: 26S proteasome non-ATPase regulatory subunit 9 (PSMD9) (protein, UniProt O00233 1-223)
chain: MSDEEARQSGGSSQAGVVTVSDVQELMRRKEEIEAQIKANYDVLESQKGIGMNEPLVDCEGYPRSDVDLYQVRTARHNIICLQNDHKAVMKQVEEALHQLHARDKEKQARDMAEAHKEAMSRKLGQSESQGPPRAFAKVNSISPGSPASIAGLQVDDEIVEFGSVNTQNFQSLHNIGSVVQHSEGKPLNVTVIRRGEKHQLRLVPTRWAGKGLLGCNIIPLQR
binding: binds
